Publication PMC8042443
Results are given in words; binding and its absence hold for the method and conditions named. In cells and extracts the contact can be indirect. Some results given as binding are weak or reduced against the parent protein; the word gives no strength. Tags and fused reporters may be left off the sequences shown.

By UniProt entry, the sequences of proteins in these tests, tags left out.
UniProt Q13574: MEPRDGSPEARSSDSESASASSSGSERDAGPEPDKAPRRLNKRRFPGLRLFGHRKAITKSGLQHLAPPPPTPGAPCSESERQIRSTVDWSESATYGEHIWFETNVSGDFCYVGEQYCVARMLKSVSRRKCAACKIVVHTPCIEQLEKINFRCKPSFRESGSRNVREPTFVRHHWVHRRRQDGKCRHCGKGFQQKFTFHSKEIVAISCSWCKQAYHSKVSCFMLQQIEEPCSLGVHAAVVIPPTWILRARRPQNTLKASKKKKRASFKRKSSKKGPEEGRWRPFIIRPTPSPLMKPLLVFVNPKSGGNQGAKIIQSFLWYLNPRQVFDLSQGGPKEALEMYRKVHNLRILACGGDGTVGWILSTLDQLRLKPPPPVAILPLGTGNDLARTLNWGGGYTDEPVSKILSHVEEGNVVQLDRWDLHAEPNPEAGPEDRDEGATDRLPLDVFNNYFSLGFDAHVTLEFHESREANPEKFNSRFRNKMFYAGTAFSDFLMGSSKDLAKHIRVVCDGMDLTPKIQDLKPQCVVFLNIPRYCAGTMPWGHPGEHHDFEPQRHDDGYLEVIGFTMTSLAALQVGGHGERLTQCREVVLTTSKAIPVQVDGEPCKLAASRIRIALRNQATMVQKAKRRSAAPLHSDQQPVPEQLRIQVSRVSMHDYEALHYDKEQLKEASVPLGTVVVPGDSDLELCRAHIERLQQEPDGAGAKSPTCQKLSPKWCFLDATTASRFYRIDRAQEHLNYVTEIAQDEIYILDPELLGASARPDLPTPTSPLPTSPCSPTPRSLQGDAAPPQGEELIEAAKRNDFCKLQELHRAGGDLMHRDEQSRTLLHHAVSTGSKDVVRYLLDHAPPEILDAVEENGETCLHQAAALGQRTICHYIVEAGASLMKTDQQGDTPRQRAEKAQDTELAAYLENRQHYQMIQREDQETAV

Biological target: T1, GST fusion protein of the α1-syntrophin PDZ domain (UniProt Q61234)
T1 sequence: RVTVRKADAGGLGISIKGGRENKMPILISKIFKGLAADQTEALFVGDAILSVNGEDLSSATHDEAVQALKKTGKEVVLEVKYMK
Experiment: pull-down; GST fusion proteins immobilised on beads, incubated 1 to 2 h at 4 °C with lysates of MEFs expressing HA-tagged DGKζ constructs; washed at least four times with ice-cold lysis buffer; bound DGKζ detected by anti-HA immunoblot; in some panels cells were treated with vehicle, 100 nM PMA, or 1 μM Gö6976 before PMA; only the target purified

Substance: HA-tagged wild-type diacylglycerol kinase ζ (from UniProt Q13574 1-928) (enzyme)
- binding: binds
